Melanoma cell counts after drug treatment

Drugs:
GSK0660, 1 µM: COC(=O)c1sccc1S(=O)(=O)Nc1ccc(Nc2ccccc2)cc1OC
GW441756, 0.4 µM: Cn1cc(/C=C2\C(=O)Nc3cccnc32)c2ccccc21
U73122, 0.4 µM: COc1ccc2c(c1)CCC1C2CCC2(C)C(NCCCCCCN3C(=O)C=CC3=O)CCC12 (stereo not drawn)
selumetinib, 0.015 µM: Cn1cnc2c(F)c(Nc3ccc(Br)cc3Cl)c(C(=O)NOCCO)cc21
TCS401, 1.67 µM: O=C(O)C(=O)Nc1sc2c(c1C(=O)O)CCNC2

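Human melanoma cell lines in 1,536-well plates were treated with a pair of drugs for 72 h, then fixed, stained and imaged. Each value is the count of nuclei relative to DMSO-treated wells, in %, so that 100 equals the control. Every drug was used at one fixed concentration, the lower of two screened (a fifth of the higher). These are primary screening values without error estimates.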 This is part of the screen, not chosen by result.

Drugs,C32
U73122 + selumetinib,100
selumetinib + TCS401,101
GW441756 + selumetinib,81.6
GSK0660 + selumetinib,71.3

Source: doi:10.1371/journal.pone.0140310, primary screening data, rounded.